Measurements reported in PubChem BioAssay AID1117269 (University of Michigan, 2014)

- Purpose: 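Which kinase knockdowns increase BTR reporter light after TGF-beta stimulation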 (primary screen)
- System: human A549 lung cancer and 1833 breast cancer (MDA-MB-231-derived) cell lines carrying a stable BTR luciferase reporter
- Knock-down reagent: siRNA pool against human genes
- Duration: 72 h after transfection, then 1 h TGF-beta before the read
- Conditions: TGF-beta 10 ng/mL added one hour before luciferin and read-out
- Measured: 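BTR reporter bioluminescence as fold change relative to non-targeting siRNA, averaging triplicates per line; knockdown for 72 h, then TGF-beta at 10 ng/mL 1 h prior to reading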
- Scale: fold over scrambled siRNA, A549 and fold over scrambled siRNA, 1833: higher = more reporter light, weaker TGF-beta receptor signalling
- Call rule: 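Hit in either line counts as active; per-line hits lie above an upper limit from quartiles of averaged log fold values, in plate and screen-wide analyses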
- Meaning of the calls: active = hit in at least one line; inactive = hit in neither line
Here is a random part of 714 reagents. Of all reagents, 49 (6.9%) got an active call. 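Active means a hit in at least one line; per-line hit columns show which; some siRNA pools appear more than once.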 Entries without a mark were called inactive. Not given: the amount of reagent.

PRKG1 scored fold over scrambled siRNA, A549 = 2.23; fold over scrambled siRNA, 1833 = 3.87; hit in A549 = not a hit in A549; hit in 1833 = not a hit in 1833.
With knock-down of HK1, the record shows fold over scrambled siRNA, A549 = 3.38; fold over scrambled siRNA, 1833 = 5.79; hit in A549 = not a hit in A549; hit in 1833 = not a hit in 1833.
Depletion of IGF1R gave: fold over scrambled siRNA, A549 = 2.1; fold over scrambled siRNA, 1833 = 0.429; hit in A549 = not a hit in A549; hit in 1833 = not a hit in 1833.
Silencing of GALK1 resulted in: fold over scrambled siRNA, A549 = 0.857; fold over scrambled siRNA, 1833 = 2; hit in A549 = not a hit in A549; hit in 1833 = not a hit in 1833.
Against SRMS, the entry reads fold over scrambled siRNA, A549 = 0.619; fold over scrambled siRNA, 1833 = 1.21; hit in A549 = not a hit in A549; hit in 1833 = not a hit in 1833.
With knock-down of MYLK4, the screen gave fold over scrambled siRNA, A549 = 4.66; fold over scrambled siRNA, 1833 = 8.83; hit in A549 = not a hit in A549; hit in 1833 = not a hit in 1833.
MAP3K19 showed fold over scrambled siRNA, A549 = 0.293; fold over scrambled siRNA, 1833 = 0.6; hit in A549 = not a hit in A549; hit in 1833 = not a hit in 1833.
For MATK the deposit lists fold over scrambled siRNA, A549 = 1.24; fold over scrambled siRNA, 1833 = 8.87; hit in A549 = not a hit in A549; hit in 1833 = not a hit in 1833.

In a second layout: 2 of the entries above.
| gene symbol | fold over scrambled siRNA, A549 | fold over scrambled siRNA, 1833 | hit in A549 | hit in 1833 |
| --- | --- | --- | --- | --- |
| GALK1 | 0.857 | 2 | not a hit in A549 | not a hit in 1833 |
| SRMS | 0.619 | 1.21 | not a hit in A549 | not a hit in 1833 |

Further reagents:
Against CAMKV the deposit lists fold over scrambled siRNA, A549 = 0.989; fold over scrambled siRNA, 1833 = 2.33; hit in A549 = not a hit in A549; hit in 1833 = not a hit in 1833.
For LIMK2 the deposit lists fold over scrambled siRNA, A549 = 1.82; fold over scrambled siRNA, 1833 = 4.19; hit in A549 = not a hit in A549; hit in 1833 = not a hit in 1833.
GOLGA5 scored fold over scrambled siRNA, A549 = 2.9; fold over scrambled siRNA, 1833 = 4.93; hit in A549 = not a hit in A549; hit in 1833 = not a hit in 1833.
RIPK2 scored fold over scrambled siRNA, A549 = 3.44; fold over scrambled siRNA, 1833 = 3.13; hit in A549 = not a hit in A549; hit in 1833 = not a hit in 1833.
